Structures can show the parent of a compound that is named as a salt. ± gives the standard deviation of the averaged measurements. This is one part of the list. The data scatter; read single values as rough.
How the values were obtained:
hAMSC donor 1 [1] = experiment: Hoechst total cell count ratio vs vehicle control; higher = more cells (less toxicity)
hAMSC donor 2 [2] = experiment: as above
hAMSC donor 1 [3] = experiment: transgenic luciferase activity (RLU/mg protein) fold change vs vehicle control (ratio); higher = more transgene expression
hAMSC donor 1 [4] = experiment: transfection efficiency (EGFP+ cells / Hoechst count) fold change vs vehicle control (ratio); higher = enhanced transfection
hAMSC donor 2 [5] = experiment: as above
hAMSC donor 2 [6] = experiment: transgenic luciferase activity (RLU/mg protein) fold change vs vehicle control (ratio); hAMSC are human adipose-derived mesenchymal stem cells given an EGFP-luciferase plasmid by lipofection; higher = more transgene expression
[7] = priming compound concentration 0.2 µM
[8] = priming compound concentration 1.7 µM
[9] = priming compound concentration 13 µM

| SMILES | Hoechst total cell count ratio (hAMSC donor 1 [1]; [7]) | Hoechst total cell count ratio (hAMSC donor 1 [1]; [8]) | Hoechst total cell count ratio (hAMSC donor 1 [1]; [9]) | Hoechst total cell count ratio (hAMSC donor 2 [2]; [7]) | Hoechst total cell count ratio (hAMSC donor 2 [2]; [8]) | Hoechst total cell count ratio (hAMSC donor 2 [2]; [9]) | transgenic luciferase activity (hAMSC donor 1 [3]; [9]) | transfection efficiency (hAMSC donor 1 [4]; [7]) | transfection efficiency (hAMSC donor 1 [4]; [8]) | transfection efficiency (hAMSC donor 1 [4]; [9]) | transfection efficiency (hAMSC donor 2 [5]; [7]) | transfection efficiency (hAMSC donor 2 [5]; [8]) | transfection efficiency (hAMSC donor 2 [5]; [9]) | transgenic luciferase activity (hAMSC donor 1 [3]; [8]) | transgenic luciferase activity (hAMSC donor 2 [6]; [9]) | transgenic luciferase activity (hAMSC donor 1 [3]; [7]) | transgenic luciferase activity (hAMSC donor 2 [6]; [7]) | transgenic luciferase activity (hAMSC donor 2 [6]; [8]) |
| --- | --- | --- | --- | --- | --- | --- | --- | --- | --- | --- | --- | --- | --- | --- | --- | --- | --- | --- |
| Cc1ccsc1C(=CCCN1CCC[C@@H](C(=O)O)C1)c1sccc1C [Tiagabine hydrochloride] | 1.27 ± 0.11 | 1.12 ± 0.098 | 1.19 ± 0.18 | 1.66 ± 0.14 | 1.06 ± 0.19 | 1.4 ± 0.028 | 0.677 ± 0.29 | 1.02 ± 0.17 | 1.01 ± 0.17 | 0.877 ± 0.45 | 0.931 ± 0.021 | 1.23 ± 0.15 | 0.817 ± 0.1 |  |  |  |  |  |
| CNCCCC12CCC(c3ccccc31)c1ccccc12 [Maprotiline hydrochloride] | 1.1 ± 0.077 | 1.11 ± 0.038 | 1.15 ± 0.032 | 1.34 ± 0.026 | 0.989 ± 0.15 | 1.05 ± 0.13 |  | 1.46 ± 0.31 | 1.57 ± 0.39 | 1.21 ± 0.29 | 0.996 ± 0.13 | 1.13 ± 0.15 | 0.931 ± 0.065 | 0.921 ± 0.17 | 0.962 ± 0.15 |  |  |  |
| C[C@H](N[C@@H](CCc1ccccc1)C(=O)O)C(=O)N1CCC[C@H]1C(=O)O [Enalaprilat] | 1.46 ± 0.052 | 1.54 ± 0.15 | 0.87 ± 0.072 | 1.46 ± 0.16 | 1.23 ± 0.11 | 1.25 ± 0.27 | 0.586 ± 0.14 | 1.19 ± 0.14 | 0.826 ± 0.14 | 1.51 ± 0.29 | 0.676 ± 0.099 | 0.911 ± 0.22 | 1.11 ± 0.1 |  |  |  |  |  |
| CN(CCCN1c2ccccc2CCc2ccccc21)CC(=O)c1ccc(Cl)cc1 [Lofepramine] | 1.35 ± 0.19 | 1.14 ± 0.28 | 1.02 ± 0.17 | 1.22 ± 0.25 | 1.05 ± 0.07 | 1.25 ± 0.078 | 0.734 ± 0.2 | 1.04 ± 0.13 | 1.35 ± 0.35 | 1.61 ± 0.49 | 1.03 ± 0.14 | 1.22 ± 0.062 | 1.17 ± 0.22 |  |  |  |  |  |
| C[C@H]1[C@H](OC(=O)CCC(=O)O)O[C@@H]2O[C@@]3(C)CC[C@H]4[C@H](C)CC[C@@H]1[C@@]24OO3 [Artesunate] | 1.4 ± 0.14 | 1.2 ± 0.17 | 1.36 ± 0.095 | 1.21 ± 0.21 | 1.47 ± 0.026 | 1.37 ± 0.079 |  | 0.569 ± 0.16 | 1.21 ± 0.52 | 0.842 ± 0.41 | 1.13 ± 0.081 | 0.624 ± 0.021 | 0.71 ± 0.13 |  |  | 0.724 ± 0.33 | 0.803 ± 0.22 |  |
| CC1=Nc2ccc(Cl)cc2S(=O)(=O)N1 [Diazoxide] | 1.33 ± 0.16 | 1.36 ± 0.15 | 1.03 ± 0.077 | 1.16 ± 0.052 | 0.998 ± 0.041 | 1.23 ± 0.28 |  | 1.09 ± 0.16 | 0.811 ± 0.18 | 1.21 ± 0.35 | 1.02 ± 0.099 | 1.13 ± 0.056 | 0.851 ± 0.11 |  |  | 0.933 ± 0.18 |  |  |
| Cc1cccc(C)c1NC(=O)C(C)N (stereo not given) [Tocainide] | 1.36 ± 0.17 | 1.31 ± 0.1 | 1.36 ± 0.14 | 0.888 ± 0.31 | 1.2 ± 0.13 | 1.11 ± 0.24 | 0.662 ± 0.39 | 0.867 ± 0.27 | 1.18 ± 0.44 | 0.717 ± 0.16 | 1.27 ± 0.27 | 1.54 ± 0.096 | 1.02 ± 0.34 |  |  |  |  |  |
| C[C@@H]1O[C@@H](OC[C@H]2O[C@@H](Oc3c(-c4ccc(O)c(O)c4)oc4cc(O)cc(O)c4c3=O)[C@H](O)[C@@H](O)[C@@H]2O)[C@H](O)[C@H](O)[C@H]1O [Rutin] | 1.06 ± 0.064 | 1.09 ± 0.19 | 1.34 ± 0.12 | 1.15 ± 0.027 | 0.983 ± 0.092 | 0.796 ± 0.48 |  | 1.23 ± 0.17 | 0.656 ± 0.29 | 0.874 ± 0.33 | 0.918 ± 0.2 | 1.15 ± 0.42 | 1 ± 0.33 |  |  | 0.754 ± 0.056 |  | 0.992 ± 0.25 |
| O=C1[C@H](CC[C@H](O)c2ccc(F)cc2)[C@@H](c2ccc(O)cc2)N1c1ccc(F)cc1 [Ezetimibe] | 1.34 ± 0.071 | 1.19 ± 0.068 | 1.15 ± 0.069 | 0.94 ± 0.08 | 1.32 ± 0.14 | 1.1 ± 0.092 | 0.786 ± 0.1 | 1.41 ± 0.35 | 1.64 ± 0.26 | 1.47 ± 0.48 | 1.15 ± 0.073 | 1.02 ± 0.23 | 0.818 ± 0.013 |  |  |  |  |  |
| CC(c1cc2ccccc2s1)N(O)C(N)=O (stereo not given) [Zileuton] | 1.51 ± 0.11 | 1.3 ± 0.11 | 1.32 ± 0.077 | 1.09 ± 0.4 | 1.02 ± 0.1 | 1.33 ± 0.26 |  | 1.27 ± 0.17 | 0.996 ± 0.11 | 1.25 ± 0.32 | 0.924 ± 0.44 | 1.19 ± 0.023 | 1.06 ± 0.27 | 0.701 ± 0.094 |  |  |  |  |
| NC(=O)OCC(COC(N)=O)c1ccccc1 [Felbamate] | 1.13 ± 0.1 | 1.29 ± 0.32 | 1.26 ± 0.16 | 1.09 ± 0.15 | 1.53 ± 0.22 | 0.85 ± 0.13 |  | 0.875 ± 0.2 | 0.631 ± 0.2 | 0.956 ± 0.16 | 0.736 ± 0.0085 | 0.983 ± 0.1 | 1.22 ± 0.32 |  |  | 0.795 ± 0.24 |  | 0.454 ± 0.02 |
| Cc1ccc(N(CC2=NCCN2)c2cccc(O)c2)cc1 [Phentolamine mono-hydrochloride] | 1.33 ± 0.09 | 1.08 ± 0.26 | 1.28 ± 0.28 | 0.856 ± 0.042 | 1.21 ± 0.05 | 1.26 ± 0.2 |  | 1.27 ± 0.62 | 1.14 ± 0.14 | 1.09 ± 0.24 | 1.66 ± 0.82 | 1.18 ± 0.23 | 1.23 ± 0.22 | 0.962 ± 0.093 |  |  |  |  |
| O=C(O)C[C@H](O)C[C@H](O)/C=C/c1c(C2CC2)nc2ccccc2c1-c1ccc(F)cc1 [Itavastatin calcium] | 0.969 ± 0.33 | 1.01 ± 0.039 | 0.863 ± 0.2 | 1.32 ± 0.13 | 1.11 ± 0.094 | 0.756 ± 0.067 |  | 1.41 ± 0.31 | 1.32 ± 0.36 | 1.84 ± 0.41 | 1.07 ± 0.29 | 1.16 ± 0.24 | 2.64 ± 0.34 | 0.777 ± 0.43 | 1.13 ± 0.099 |  |  |  |
| COc1ccc(-c2oc3c(CC=C(C)C)c(O[C@@H]4O[C@H](CO)[C@@H](O)[C@H](O)[C@H]4O)cc(O)c3c(=O)c2O[C@@H]2O[C@@H](C)[C@H](O)[C@@H](O)[C@H]2O)cc1 [Icariin] | 1.4 ± 0.11 | 1.25 ± 0.031 | 1.23 ± 0.052 | 1.23 ± 0.22 | 1.13 ± 0.082 | 1.23 ± 0.12 | 0.779 ± 0.064 | 0.964 ± 0.18 | 1.12 ± 0.063 | 1.19 ± 0.48 | 0.995 ± 0.18 | 1.23 ± 0.29 | 0.902 ± 0.077 |  |  |  |  |  |
| CC1CCN(CCCC(=O)c2ccc(F)cc2)CC1 [Methylperone hydrochloride] | 1.36 ± 0.14 | 1.26 ± 0.049 | 1.25 ± 0.15 | 1.44 ± 0.26 | 1.08 ± 0.081 | 1.09 ± 0.18 |  | 1.06 ± 0.28 | 1.2 ± 0.2 | 0.989 ± 0.27 | 0.745 ± 0.096 | 0.888 ± 0.12 | 0.817 ± 0.17 |  |  | 1.11 ± 0.37 |  |  |

Reformatted tab-delimited: part of the list above
SMILES	Hoechst total cell count ratio (hAMSC donor 1 [1]; [7])	Hoechst total cell count ratio (hAMSC donor 1 [1]; [8])	Hoechst total cell count ratio (hAMSC donor 1 [1]; [9])	Hoechst total cell count ratio (hAMSC donor 2 [2]; [7])	Hoechst total cell count ratio (hAMSC donor 2 [2]; [8])	Hoechst total cell count ratio (hAMSC donor 2 [2]; [9])	transgenic luciferase activity (hAMSC donor 1 [3]; [9])	transfection efficiency (hAMSC donor 1 [4]; [7])	transfection efficiency (hAMSC donor 1 [4]; [8])	transfection efficiency (hAMSC donor 1 [4]; [9])	transfection efficiency (hAMSC donor 2 [5]; [7])	transfection efficiency (hAMSC donor 2 [5]; [8])	transfection efficiency (hAMSC donor 2 [5]; [9])	transgenic luciferase activity (hAMSC donor 1 [3]; [8])	transgenic luciferase activity (hAMSC donor 2 [6]; [9])	transgenic luciferase activity (hAMSC donor 1 [3]; [7])	transgenic luciferase activity (hAMSC donor 2 [6]; [7])	transgenic luciferase activity (hAMSC donor 2 [6]; [8])
C[C@H]1[C@H](OC(=O)CCC(=O)O)O[C@@H]2O[C@@]3(C)CC[C@H]4[C@H](C)CC[C@@H]1[C@@]24OO3 [Artesunate]	1.4 ± 0.14	1.2 ± 0.17	1.36 ± 0.095	1.21 ± 0.21	1.47 ± 0.026	1.37 ± 0.079		0.569 ± 0.16	1.21 ± 0.52	0.842 ± 0.41	1.13 ± 0.081	0.624 ± 0.021	0.71 ± 0.13			0.724 ± 0.33	0.803 ± 0.22	
CC1=Nc2ccc(Cl)cc2S(=O)(=O)N1 [Diazoxide]	1.33 ± 0.16	1.36 ± 0.15	1.03 ± 0.077	1.16 ± 0.052	0.998 ± 0.041	1.23 ± 0.28		1.09 ± 0.16	0.811 ± 0.18	1.21 ± 0.35	1.02 ± 0.099	1.13 ± 0.056	0.851 ± 0.11			0.933 ± 0.18		
Cc1cccc(C)c1NC(=O)C(C)N (stereo not given) [Tocainide]	1.36 ± 0.17	1.31 ± 0.1	1.36 ± 0.14	0.888 ± 0.31	1.2 ± 0.13	1.11 ± 0.24	0.662 ± 0.39	0.867 ± 0.27	1.18 ± 0.44	0.717 ± 0.16	1.27 ± 0.27	1.54 ± 0.096	1.02 ± 0.34					

Source: the supplement of paper PMC7238544
